# Laboratory results taken from patent publication US9642897B2, “Treatment of bone diseases” (THE UNIVERSITY OF SYDNEY, priority 2011, dated 2017).
# Experiments:
# [1] = Serum concentrations of calciotropic hormones (vitamin D and PTH); assay type: in vivo, C57BL/6 mice
# [2] = Serum concentration of nine essential minerals (GC-MS); assay type: in vivo, C57BL/6 mice
compound,measurement,setting,value
"O=C(O)c1ccccn1 [PA, pyridine-2-carboxylic acid]",PTH (serum),"[1]; OVX, PA250",35 ± 8 pg/mL
same,Vitamin D (serum),"[1]; OVX, PA250",52 ± 16 nmol/L
same,PTH (serum),"[1]; OVX, PA500",35 ± 6 pg/mL
same,Vitamin D (serum),"[1]; OVX, PA500",56 ± 4 nmol/L
same,PTH (serum),"[1]; OVX, PA1000",40 ± 2 pg/mL
same,Vitamin D (serum),"[1]; OVX, PA1000",52 ± 13 nmol/L
same,PTH (serum),"[1]; Sham, PA250",40 ± 3 pg/mL
same,Vitamin D (serum),"[1]; Sham, PA250",54 ± 12 nmol/L
same,PTH (serum),"[1]; Sham, PA500",35 ± 5 pg/mL
same,Vitamin D (serum),"[1]; Sham, PA500",52 ± 14 nmol/L
same,PTH (serum),"[1]; Sham, PA1000",36 ± 5 pg/mL
same,Vitamin D (serum),"[1]; Sham, PA1000",53 ± 13 nmol/L
same,Serum Aluminium,"[2]; OVX, PA250",2 ± 1.4 µmol/L
same,Serum Calcium,"[2]; OVX, PA250",9 ± 0.25 mg/dL
same,Serum Carbon,"[2]; OVX, PA250",30 ± 0.5 mEq/L
same,Serum Cobalt,"[2]; OVX, PA250",2 ± 0.1 µg/L
same,Serum Copper,"[2]; OVX, PA250",647 ± 36 µg/L
same,Serum Iron,"[2]; OVX, PA250",170 ± 30 µg/dL
same,Serum Magnesium,"[2]; OVX, PA250",2.6 ± 0.35 mg/dL
same,Serum Manganese,"[2]; OVX, PA250",3 ± 0.4 µg/L
same,Serum Zinc,"[2]; OVX, PA250",72 ± 6 µg/dL
same,Serum Aluminium,"[2]; OVX, PA500",2.5 ± 0.2 µmol/L
same,Serum Calcium,"[2]; OVX, PA500",8.9 ± 0.27 mg/dL
same,Serum Carbon,"[2]; OVX, PA500",29 ± 1.2 mEq/L
same,Serum Cobalt,"[2]; OVX, PA500",2 ± 0.2 µg/L
same,Serum Copper,"[2]; OVX, PA500",631 ± 10 µg/L
same,Serum Iron,"[2]; OVX, PA500",200 ± 70 µg/dL
same,Serum Magnesium,"[2]; OVX, PA500",2.4 ± 0.17 mg/dL
same,Serum Manganese,"[2]; OVX, PA500",5 ± 2.5 µg/L
same,Serum Zinc,"[2]; OVX, PA500",69 ± 7.7 µg/dL
same,Serum Aluminium,"[2]; OVX, PA1000",4.5 ± 3 µmol/L
same,Serum Calcium,"[2]; OVX, PA1000",8.7 ± 0.07 mg/dL
same,Serum Carbon,"[2]; OVX, PA1000",28 ± 1 mEq/L
same,Serum Cobalt,"[2]; OVX, PA1000",1.9 ± 0.1 µg/L
same,Serum Copper,"[2]; OVX, PA1000",614 ± 31 µg/L
same,Serum Iron,"[2]; OVX, PA1000",180 ± 20 µg/dL
same,Serum Magnesium,"[2]; OVX, PA1000",2.6 ± 0.2 mg/dL
same,Serum Manganese,"[2]; OVX, PA1000",3 ± 0.6 µg/L
same,Serum Zinc,"[2]; OVX, PA1000",73 ± 2.4 µg/dL
same,Serum Aluminium,"[2]; Sham, PA250",7 ± 3 µmol/L
same,Serum Calcium,"[2]; Sham, PA250",9.1 ± 0.05 mg/dL
same,Serum Carbon,"[2]; Sham, PA250",29 ± 0.9 mEq/L
same,Serum Cobalt,"[2]; Sham, PA250",2.4 ± 6.4 µg/L
same,Serum Copper,"[2]; Sham, PA250",643 ± 52 µg/L
same,Serum Iron,"[2]; Sham, PA250",240 ± 70 µg/dL
same,Serum Magnesium,"[2]; Sham, PA250",2.8 ± 0.4 mg/dL
same,Serum Manganese,"[2]; Sham, PA250",4 ± 1.6 µg/L
same,Serum Zinc,"[2]; Sham, PA250",63 ± 5.2 µg/dL
same,Serum Aluminium,"[2]; Sham, PA500",4 ± 1 µmol/L
same,Serum Calcium,"[2]; Sham, PA500",8.9 ± 0.28 mg/dL
same,Serum Carbon,"[2]; Sham, PA500",28 ± 0.2 mEq/L
same,Serum Cobalt,"[2]; Sham, PA500",2.1 ± 0.2 µg/L
same,Serum Copper,"[2]; Sham, PA500",576 ± 69 µg/L
same,Serum Iron,"[2]; Sham, PA500",200 ± 80 µg/dL
same,Serum Magnesium,"[2]; Sham, PA500",2.8 ± 0.25 mg/dL
same,Serum Manganese,"[2]; Sham, PA500",3 ± 0.5 µg/L
same,Serum Zinc,"[2]; Sham, PA500",62 ± 7.4 µg/dL
same,Serum Aluminium,"[2]; Sham, PA1000",5 ± 2 µmol/L
same,Serum Calcium,"[2]; Sham, PA1000",9.1 ± 0.24 mg/dL
same,Serum Carbon,"[2]; Sham, PA1000",31 ± 1.2 mEq/L
same,Serum Cobalt,"[2]; Sham, PA1000",2.2 ± 0.1 µg/L
same,Serum Copper,"[2]; Sham, PA1000",703 ± 56 µg/L
same,Serum Iron,"[2]; Sham, PA1000",200 ± 40 µg/dL
same,Serum Magnesium,"[2]; Sham, PA1000",2.8 ± 0.22 mg/dL
same,Serum Manganese,"[2]; Sham, PA1000",4 ± 0.9 µg/L
same,Serum Zinc,"[2]; Sham, PA1000",69 ± 9.3 µg/dL
